Assay results published in the supplement of paper PMC12819154, “High-throughput peptide-centric local stability assay extends protein–ligand identification to membrane proteins, tissues and bacteria” (Nature Structural & Molecular Biology, 2025).
This is one part of the list. Small differences around the control level are noise.

Chains of the proteins cited; added tags and fusions are not shown. Lines headed by an entry give the natural chain unless they say otherwise; changes in a name come on top.
UniProt Q91XE4: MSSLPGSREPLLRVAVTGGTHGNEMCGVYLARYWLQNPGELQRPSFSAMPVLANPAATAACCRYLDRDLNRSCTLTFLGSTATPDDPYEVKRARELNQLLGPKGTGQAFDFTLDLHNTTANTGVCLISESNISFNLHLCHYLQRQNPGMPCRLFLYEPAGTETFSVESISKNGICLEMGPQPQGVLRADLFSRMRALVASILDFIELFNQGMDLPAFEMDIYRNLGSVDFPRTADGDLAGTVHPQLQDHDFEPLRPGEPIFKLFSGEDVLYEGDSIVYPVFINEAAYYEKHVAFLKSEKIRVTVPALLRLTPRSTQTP
UniProt Q91VR5: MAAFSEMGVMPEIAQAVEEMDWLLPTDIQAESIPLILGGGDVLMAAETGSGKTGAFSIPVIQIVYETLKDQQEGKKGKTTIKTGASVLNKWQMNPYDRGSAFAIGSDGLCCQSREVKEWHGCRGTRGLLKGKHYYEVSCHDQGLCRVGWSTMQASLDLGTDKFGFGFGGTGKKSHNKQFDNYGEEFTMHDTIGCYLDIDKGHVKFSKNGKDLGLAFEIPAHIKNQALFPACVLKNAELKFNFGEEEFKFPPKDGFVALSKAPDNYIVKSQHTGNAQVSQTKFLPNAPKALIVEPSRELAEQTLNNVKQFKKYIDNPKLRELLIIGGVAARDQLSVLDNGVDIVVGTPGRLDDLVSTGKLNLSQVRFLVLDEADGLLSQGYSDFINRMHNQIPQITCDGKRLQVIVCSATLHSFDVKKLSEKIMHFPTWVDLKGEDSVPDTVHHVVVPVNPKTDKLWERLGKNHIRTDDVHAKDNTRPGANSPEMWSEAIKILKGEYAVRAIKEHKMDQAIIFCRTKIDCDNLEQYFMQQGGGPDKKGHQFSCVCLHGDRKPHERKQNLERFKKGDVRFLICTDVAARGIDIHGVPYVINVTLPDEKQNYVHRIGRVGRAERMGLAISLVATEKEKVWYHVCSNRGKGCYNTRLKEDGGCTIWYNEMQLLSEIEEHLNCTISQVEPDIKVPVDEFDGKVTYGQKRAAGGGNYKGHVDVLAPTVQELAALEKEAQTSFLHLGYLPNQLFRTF
UniProt Q91VT4: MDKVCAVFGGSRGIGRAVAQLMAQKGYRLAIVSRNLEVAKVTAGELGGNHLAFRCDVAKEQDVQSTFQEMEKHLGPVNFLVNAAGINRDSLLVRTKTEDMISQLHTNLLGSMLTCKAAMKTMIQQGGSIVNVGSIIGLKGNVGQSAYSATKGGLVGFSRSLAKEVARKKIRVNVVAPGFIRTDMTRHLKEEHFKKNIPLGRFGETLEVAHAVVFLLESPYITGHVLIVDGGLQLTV
UniProt Q91Z40: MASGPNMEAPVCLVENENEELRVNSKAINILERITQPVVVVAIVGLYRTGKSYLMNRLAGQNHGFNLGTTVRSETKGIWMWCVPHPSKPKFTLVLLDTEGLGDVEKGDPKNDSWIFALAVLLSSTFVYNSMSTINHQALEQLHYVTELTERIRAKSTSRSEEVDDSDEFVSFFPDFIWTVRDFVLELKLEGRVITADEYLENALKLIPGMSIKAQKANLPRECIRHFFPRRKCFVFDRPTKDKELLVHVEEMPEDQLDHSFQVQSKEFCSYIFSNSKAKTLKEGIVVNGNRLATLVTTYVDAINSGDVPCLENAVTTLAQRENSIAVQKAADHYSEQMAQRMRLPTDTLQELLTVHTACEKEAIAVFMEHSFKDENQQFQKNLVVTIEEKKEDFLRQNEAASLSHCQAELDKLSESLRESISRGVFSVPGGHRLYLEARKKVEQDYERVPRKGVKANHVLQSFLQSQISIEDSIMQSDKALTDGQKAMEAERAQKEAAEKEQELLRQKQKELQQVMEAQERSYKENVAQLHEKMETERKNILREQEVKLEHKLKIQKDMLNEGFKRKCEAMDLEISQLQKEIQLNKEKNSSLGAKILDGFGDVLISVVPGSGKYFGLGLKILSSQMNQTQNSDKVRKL
UniProt Q91ZE0: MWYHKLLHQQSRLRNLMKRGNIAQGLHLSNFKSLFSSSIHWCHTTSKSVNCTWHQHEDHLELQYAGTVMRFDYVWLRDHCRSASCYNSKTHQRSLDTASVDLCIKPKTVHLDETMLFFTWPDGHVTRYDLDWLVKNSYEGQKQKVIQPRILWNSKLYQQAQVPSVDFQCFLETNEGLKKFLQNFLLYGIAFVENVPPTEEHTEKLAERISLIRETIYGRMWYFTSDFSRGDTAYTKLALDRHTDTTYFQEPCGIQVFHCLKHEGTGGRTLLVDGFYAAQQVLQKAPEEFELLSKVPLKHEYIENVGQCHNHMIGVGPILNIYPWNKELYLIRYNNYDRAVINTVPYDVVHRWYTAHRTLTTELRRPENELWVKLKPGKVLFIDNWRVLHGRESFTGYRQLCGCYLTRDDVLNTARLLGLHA
UniProt Q91YK2: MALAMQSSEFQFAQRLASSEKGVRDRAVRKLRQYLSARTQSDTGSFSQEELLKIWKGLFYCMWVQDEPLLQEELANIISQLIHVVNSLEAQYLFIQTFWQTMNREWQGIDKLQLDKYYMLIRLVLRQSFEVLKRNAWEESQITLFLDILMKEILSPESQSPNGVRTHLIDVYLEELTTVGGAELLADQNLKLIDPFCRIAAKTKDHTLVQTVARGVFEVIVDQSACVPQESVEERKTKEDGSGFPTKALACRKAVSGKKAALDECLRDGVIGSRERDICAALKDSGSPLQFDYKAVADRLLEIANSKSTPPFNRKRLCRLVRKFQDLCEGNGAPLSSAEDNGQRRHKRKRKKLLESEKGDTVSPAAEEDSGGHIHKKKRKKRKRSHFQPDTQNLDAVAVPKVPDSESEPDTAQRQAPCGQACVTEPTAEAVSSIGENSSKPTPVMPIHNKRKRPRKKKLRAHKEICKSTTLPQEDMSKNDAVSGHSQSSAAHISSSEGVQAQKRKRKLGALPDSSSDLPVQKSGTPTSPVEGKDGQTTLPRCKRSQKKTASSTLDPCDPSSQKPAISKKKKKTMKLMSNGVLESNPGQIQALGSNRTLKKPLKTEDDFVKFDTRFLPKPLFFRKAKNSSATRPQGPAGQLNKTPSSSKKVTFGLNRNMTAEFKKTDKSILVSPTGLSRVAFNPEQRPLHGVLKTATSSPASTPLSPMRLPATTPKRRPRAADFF
UniProt Q91ZA3: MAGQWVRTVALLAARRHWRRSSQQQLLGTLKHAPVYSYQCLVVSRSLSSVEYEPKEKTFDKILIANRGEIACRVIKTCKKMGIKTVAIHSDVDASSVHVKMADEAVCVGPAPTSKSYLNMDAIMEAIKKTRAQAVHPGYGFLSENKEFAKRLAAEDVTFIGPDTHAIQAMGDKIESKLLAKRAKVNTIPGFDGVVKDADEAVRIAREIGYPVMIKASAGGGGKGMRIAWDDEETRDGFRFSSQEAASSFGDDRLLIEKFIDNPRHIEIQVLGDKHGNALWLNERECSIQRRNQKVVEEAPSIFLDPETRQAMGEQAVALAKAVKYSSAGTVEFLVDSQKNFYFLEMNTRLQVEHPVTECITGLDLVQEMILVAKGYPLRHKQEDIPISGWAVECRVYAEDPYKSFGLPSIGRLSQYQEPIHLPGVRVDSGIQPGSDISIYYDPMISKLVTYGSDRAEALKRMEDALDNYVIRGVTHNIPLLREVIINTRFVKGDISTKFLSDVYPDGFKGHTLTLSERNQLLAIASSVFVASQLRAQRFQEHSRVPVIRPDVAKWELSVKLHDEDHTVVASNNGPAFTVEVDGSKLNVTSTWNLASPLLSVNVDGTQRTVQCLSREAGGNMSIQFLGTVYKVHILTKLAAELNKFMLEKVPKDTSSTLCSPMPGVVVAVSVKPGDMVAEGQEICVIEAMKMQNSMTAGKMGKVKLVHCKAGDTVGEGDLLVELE
UniProt Q91YQ5: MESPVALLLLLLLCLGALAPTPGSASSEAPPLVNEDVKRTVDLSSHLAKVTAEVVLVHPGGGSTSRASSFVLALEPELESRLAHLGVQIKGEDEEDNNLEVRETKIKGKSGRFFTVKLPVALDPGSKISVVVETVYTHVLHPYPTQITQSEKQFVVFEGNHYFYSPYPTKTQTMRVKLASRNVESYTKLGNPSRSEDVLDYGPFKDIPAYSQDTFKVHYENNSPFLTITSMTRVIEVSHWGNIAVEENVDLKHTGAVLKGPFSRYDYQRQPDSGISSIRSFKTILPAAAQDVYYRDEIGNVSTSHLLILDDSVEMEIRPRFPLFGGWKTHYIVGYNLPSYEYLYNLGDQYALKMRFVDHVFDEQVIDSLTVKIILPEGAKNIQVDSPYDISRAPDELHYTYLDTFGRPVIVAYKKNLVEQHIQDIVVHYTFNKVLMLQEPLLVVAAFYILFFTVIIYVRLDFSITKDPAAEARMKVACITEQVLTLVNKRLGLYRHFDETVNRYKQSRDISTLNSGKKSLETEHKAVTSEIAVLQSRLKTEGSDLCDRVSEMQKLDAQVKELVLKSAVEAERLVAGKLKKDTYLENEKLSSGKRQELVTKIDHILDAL
UniProt Q921W0: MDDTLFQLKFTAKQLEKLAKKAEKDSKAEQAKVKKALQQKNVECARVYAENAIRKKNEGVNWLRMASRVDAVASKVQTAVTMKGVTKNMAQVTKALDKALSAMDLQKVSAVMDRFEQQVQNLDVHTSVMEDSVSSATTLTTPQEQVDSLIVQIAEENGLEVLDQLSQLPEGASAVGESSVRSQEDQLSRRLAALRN
UniProt Q921I0: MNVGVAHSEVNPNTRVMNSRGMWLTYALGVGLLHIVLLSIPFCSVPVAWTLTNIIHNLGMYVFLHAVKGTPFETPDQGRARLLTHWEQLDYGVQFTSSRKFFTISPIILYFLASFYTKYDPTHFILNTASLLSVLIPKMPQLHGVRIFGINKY
UniProt Q921I2: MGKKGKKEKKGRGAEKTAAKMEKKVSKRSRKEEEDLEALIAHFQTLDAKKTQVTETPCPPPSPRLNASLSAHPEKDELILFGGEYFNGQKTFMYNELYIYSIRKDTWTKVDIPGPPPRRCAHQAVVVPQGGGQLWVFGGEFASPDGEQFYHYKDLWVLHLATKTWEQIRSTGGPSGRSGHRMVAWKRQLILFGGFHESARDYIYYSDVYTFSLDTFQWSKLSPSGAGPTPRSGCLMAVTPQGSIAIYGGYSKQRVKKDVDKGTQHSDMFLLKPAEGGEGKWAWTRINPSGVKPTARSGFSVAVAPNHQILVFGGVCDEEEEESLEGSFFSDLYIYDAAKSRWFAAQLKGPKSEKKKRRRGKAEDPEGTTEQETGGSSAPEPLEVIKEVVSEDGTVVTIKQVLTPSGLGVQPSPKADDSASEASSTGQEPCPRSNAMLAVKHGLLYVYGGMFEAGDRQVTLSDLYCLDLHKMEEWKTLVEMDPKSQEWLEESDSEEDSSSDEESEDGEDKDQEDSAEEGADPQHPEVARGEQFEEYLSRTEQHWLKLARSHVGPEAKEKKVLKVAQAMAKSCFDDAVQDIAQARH
UniProt Q8VE62: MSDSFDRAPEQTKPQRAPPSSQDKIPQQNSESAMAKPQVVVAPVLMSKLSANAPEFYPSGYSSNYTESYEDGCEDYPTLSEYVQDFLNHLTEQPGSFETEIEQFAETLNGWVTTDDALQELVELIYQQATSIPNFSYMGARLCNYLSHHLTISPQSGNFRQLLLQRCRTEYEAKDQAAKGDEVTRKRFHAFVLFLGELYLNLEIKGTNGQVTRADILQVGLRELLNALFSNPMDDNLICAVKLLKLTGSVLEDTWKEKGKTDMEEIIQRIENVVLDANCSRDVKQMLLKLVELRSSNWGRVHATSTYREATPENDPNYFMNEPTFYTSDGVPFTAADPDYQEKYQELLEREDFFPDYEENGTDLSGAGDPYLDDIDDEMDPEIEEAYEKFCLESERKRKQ
UniProt Q8VIM9: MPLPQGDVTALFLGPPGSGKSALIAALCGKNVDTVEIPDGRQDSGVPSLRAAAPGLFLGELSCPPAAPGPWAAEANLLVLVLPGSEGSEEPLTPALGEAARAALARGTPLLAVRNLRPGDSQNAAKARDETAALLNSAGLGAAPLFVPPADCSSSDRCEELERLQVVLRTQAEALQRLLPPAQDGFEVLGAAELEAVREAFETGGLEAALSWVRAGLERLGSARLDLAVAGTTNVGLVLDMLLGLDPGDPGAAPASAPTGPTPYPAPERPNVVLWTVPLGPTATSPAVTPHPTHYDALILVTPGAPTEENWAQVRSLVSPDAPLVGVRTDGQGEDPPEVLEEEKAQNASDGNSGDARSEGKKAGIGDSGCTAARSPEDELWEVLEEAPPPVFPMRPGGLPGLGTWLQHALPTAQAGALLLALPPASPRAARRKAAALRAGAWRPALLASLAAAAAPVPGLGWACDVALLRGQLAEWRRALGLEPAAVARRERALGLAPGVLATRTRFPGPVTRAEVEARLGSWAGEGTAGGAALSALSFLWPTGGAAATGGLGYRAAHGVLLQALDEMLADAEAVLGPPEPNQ
UniProt Q91WB4: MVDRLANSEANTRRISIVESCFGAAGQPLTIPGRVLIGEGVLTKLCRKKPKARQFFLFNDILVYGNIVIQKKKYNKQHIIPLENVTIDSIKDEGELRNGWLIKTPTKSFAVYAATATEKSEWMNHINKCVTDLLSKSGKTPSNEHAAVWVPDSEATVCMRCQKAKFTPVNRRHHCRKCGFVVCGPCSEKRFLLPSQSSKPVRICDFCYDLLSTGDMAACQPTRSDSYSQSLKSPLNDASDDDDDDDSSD

compound: CN[C@@H]1C[C@H]2O[C@@](C)([C@@H]1OC)n1c3ccccc3c3c4c(c5c6ccccc6n2c5c31)C(=O)NC4 [staurosporine]; test: log2 fold change of pooled soluble protein (PISA), ligand vs vehicle (log2 ratio); higher = more thermally stabilized; conditions: ligand concentration: 20 uM; assay format: PISA pool 52.9/55.5/58.6 C

Target	log2 fold change of pooled soluble protein
UniProt Q922R8	-0.303
UniProt Q91XE4	-0.00077
UniProt Q922E4	-0.0778
UniProt Q91VR5	-0.277
UniProt Q91W52	-0.328
UniProt Q923Z3	-0.0569
UniProt Q8VDD5	-0.02
UniProt Q91YW3	-0.125
UniProt Q91WQ3	-0.0228
UniProt Q922H4	0.17
UniProt Q91VT4	-0.083
UniProt Q91W59	-0.192
UniProt Q91YP0	-0.0588
UniProt Q91W90	0.167
UniProt Q91Z40	-0.0447
UniProt Q91ZE0	-0.192
UniProt Q921Z5	-0.202
UniProt Q91YK2	-0.0148
UniProt Q91XE0	0.0418

Target	log2 fold change of pooled soluble protein
UniProt Q91ZA3	-0.126
UniProt Q91YR7	-0.121
UniProt Q924D0	-0.194
UniProt Q91YQ5	-0.23
UniProt Q91V36	0.0473
UniProt Q921W0	-0.184
UniProt Q921I0	-0.18
UniProt Q921I2	0.12
UniProt Q91ZU1	-0.0741
UniProt Q91ZV0	0.0248
UniProt Q91WG8	-0.0635
UniProt Q8VE62	0.0985
UniProt Q8VIM9	0.404
UniProt Q91WB4	-0.292
UniProt Q921I1	0.00344
UniProt Q91X34	0.109
UniProt Q8VHH5	-0.124
UniProt Q8VDG5	-0.0576

Quoted from the listing.
UniProt Q91WB4 | log2 fold change of pooled soluble protein: -0.292
UniProt Q921I1 | log2 fold change of pooled soluble protein: 0.00344
